Assay results reported in the supplement of paper PMC6078165.
Values are relative to the signal before dosing, not to a vehicle control; the signal also falls without drug.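 Fibroblast labels name human fibroblasts: mostly primary ones from tissues such as uterus (C12385, HUF), lung (H6013), bone (Hs27A), adrenal (HADF) and skin (WS1), plus mammary HMF and breast cancer-associated Hs343T. The cancer cells are basal-like or mesenchymal-like triple-negative breast cancer lines. The paper calls a changed response a hit when it shifts by more than 3x the replicate standard deviation. The tissue of the other fibroblasts is not given here.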

System: BT20
Assay: relative JC-1 red fluorescence (viability) vs pre-drug, coculture with fibroblast (fraction); higher = more viable cancer cells
Experimental: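 JC-1 labelled TNBC cells cocultured 1:1 (1,500 cells each) with CellTrace Violet stained primary or stromal fibroblasts in 384-well plates in FluoroBrite medium, treated with one of 42 anticancer drugs at 0.1, 1, 10 or 100 uM. JC-1 red fluorescence (mitochondrial integrity in cancer cells only) was read by plate reader every 8 h for 72 h. Values are normalised to each well's pre-drug value. The stock of one drug was tenfold lower, so its dose labels may be too high.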

CC(=O)O[C@@]12CO[C@@H]1C[C@H](O)[C@@]1(C)C(=O)[C@H](O)C3=C(C)[C@@H](OC(=O)[C@H](O)[C@@H](NC(=O)OC(C)(C)C)c4ccccc4)C[C@@](O)([C@@H](OC(=O)c4ccccc4)[C@H]21)C3(C)C [Docetaxel]
relative JC-1 red fluorescence
Conditions | 8 h | 16 h | 24 h | 32 h | 40 h | 48 h | 56 h | 64 h | 72 h
10 µM, coculture fibroblast: C12385 | 0.881 | 0.858 | 0.86 | 0.817 | 0.748 | 0.721 | 0.693 | 0.681 | 0.667
10 µM, coculture fibroblast: H6013 | 0.949 | 0.92 | 0.883 | 0.847 | 0.816 | 0.786 | 0.784 | 0.777 | 0.769
10 µM, coculture fibroblast: H6019 | 0.871 | 0.838 | 0.843 | 0.818 | 0.801 | 0.799 | 0.785 | 0.78 | 0.773
10 µM, coculture fibroblast: H6076 | 0.838 | 0.927 | 0.872 | 0.865 | 0.831 | 0.815 | 0.824 | 0.827 | 0.821
10 µM, coculture fibroblast: H6231 | 0.813 | 0.937 | 0.822 | 0.747 | 0.667 | 0.593 | 0.535 | 0.507 | 0.477
10 µM, coculture fibroblast: HADF | 0.9579 | 0.917 | 0.873 | 0.836 | 0.812 | 0.756 | 0.744 | 0.724 | 0.697
10 µM, coculture fibroblast: HCFa | 0.967 | 0.931 | 0.889 | 0.832 | 0.795 | 0.755 | 0.726 | 0.71 | 0.685
10 µM, coculture fibroblast: HCPF | 0.9733 | 0.902 | 0.857 | 0.82 | 0.778 | 0.7452 | 0.7195 | 0.716 | 0.673
10 µM, coculture fibroblast: HHSteC | 0.948 | 0.933 | 0.901 | 0.835 | 0.822 | 0.789 | 0.752 | 0.729 | 0.705
10 µM, coculture fibroblast: HMF | 0.827 | 0.956 | 0.867 | 0.804 | 0.758 | 0.693 | 0.663 | 0.629 | 0.611
10 µM, coculture fibroblast: HPFa | 0.94 | 0.858 | 0.838 | 0.753 | 0.711 | 0.652 | 0.616 | 0.582 | 0.549
10 µM, coculture fibroblast: HUF | 0.893 | 0.82 | 0.794 | 0.725 | 0.66 | 0.606 | 0.578 | 0.5462 | 0.5302
10 µM, coculture fibroblast: Hs5 | 0.935 | 0.9313 | 0.8751 | 0.835 | 0.7925 | 0.77 | 0.762 | 0.743 | 0.754
10 µM, coculture fibroblast: Hs27A | 0.805 | 0.716 | 0.988 | 0.792 | 0.926 | 0.963 | 0.9361 | 0.891 | 0.834
10 µM, coculture fibroblast: Hs343T | 0.857 | 0.915 | 0.814 | 0.755 | 0.684 | 0.637 | 0.581 | 0.566 | 0.525
10 µM, coculture fibroblast: WS1 | 0.855 | 0.793 | 0.7575 | 0.6981 | 0.638 | 0.602 | 0.563 | 0.526 | 0.51
100 µM, coculture fibroblast: C12385 | 0.877 | 0.817 | 0.749 | 0.683 | 0.631 | 0.591 | 0.555 | 0.519 | 0.499
100 µM, coculture fibroblast: H6013 | 0.9661 | 0.932 | 0.916 | 0.895 | 0.859 | 0.842 | 0.862 | 0.858 | 0.843
100 µM, coculture fibroblast: H6019 | 0.8805 | 0.832 | 0.821 | 0.792 | 0.767 | 0.765 | 0.744 | 0.728 | 0.717
100 µM, coculture fibroblast: H6076 | 0.903 | 0.9397 | 0.851 | 0.799 | 0.749 | 0.713 | 0.7 | 0.709 | 0.704
100 µM, coculture fibroblast: H6231 | 0.844 | 0.914 | 0.809 | 0.762 | 0.723 | 0.685 | 0.66 | 0.641 | 0.637
100 µM, coculture fibroblast: HADF | 0.893 | 0.943 | 0.856 | 0.817 | 0.766 | 0.727 | 0.695 | 0.686 | 0.653
100 µM, coculture fibroblast: HCFa | 0.95 | 0.807 | 0.879 | 0.788 | 0.847 | 0.811 | 0.769 | 0.732 | 0.688
100 µM, coculture fibroblast: HCPF | 0.758 | 0.9065 | 0.801 | 0.749 | 0.699 | 0.656 | 0.614 | 0.614 | 0.574
100 µM, coculture fibroblast: HHSteC | 0.952 | 0.901 | 0.869 | 0.804 | 0.748 | 0.721 | 0.688 | 0.661 | 0.629
100 µM, coculture fibroblast: HMF | 0.876 | 0.8994 | 0.788 | 0.733 | 0.677 | 0.634 | 0.5993 | 0.567 | 0.533
100 µM, coculture fibroblast: HPFa | 0.94677 | 0.878 | 0.871 | 0.774 | 0.755 | 0.702 | 0.669 | 0.641 | 0.606
100 µM, coculture fibroblast: HUF | 0.908 | 0.84 | 0.7829 | 0.703 | 0.647 | 0.6 | 0.572 | 0.541 | 0.5149
100 µM, coculture fibroblast: Hs5 | 0.775 | 0.855 | 0.884 | 0.8214 | 0.763 | 0.703 | 0.657 | 0.63 | 0.614
100 µM, coculture fibroblast: Hs27A | 0.709 | 0.804 | 0.851 | 0.826 | 0.787 | 0.847 | 0.937 | 0.83 | 0.791
100 µM, coculture fibroblast: Hs343T | 0.86 | 0.932 | 0.827 | 0.77 | 0.705 | 0.656 | 0.601 | 0.574 | 0.551
100 µM, coculture fibroblast: WS1 | 0.87 | 0.7983 | 0.736 | 0.679 | 0.627 | 0.592 | 0.539 | 0.507 | 0.479
